In paper PMC11304329:
Results are given in words; binding and its absence hold for the method and conditions named. In cells and extracts the contact can be indirect. These calls come from enrichment with a bait or labelling near it, and not all partners need be listed. Values belong to the binder of their own block, whether it stands above or below them.

Target: FLAG-Tev-6×His (FTH)-tagged Dm65K (Drosophila)
Assay: affinity purification with mass spectrometry; two-step purification of FTH-Dm65K from nuclear extract of Day 3 pupae: ANTI-FLAG M2 affinity gel, elution with 3x FLAG peptide, then Ni-NTA beads; WB150 buffer (20 mM Tris-HCl pH 7.4, 150 mM NaCl, 0.1% CA-630); WT pupae as control

binding: binds
B1: SmG (protein, UniProt Q9VXE0 1-76)
chain: MSKAHPPEVKKYMDKRMMLKLNGGRAVTGILRGFDPFMNVVLDDTVEECKDNTKNNIGMVVIRGNSIVMVEALDRV

binding: binds
B2: SmE (protein, UniProt Q9VLV5 1-94)
chain: MSFKGNPKVQKVMVQPINLIFRYLQNRSRVQVWLYENISLRIEGHIVGFDEYMNLVLDDAEEVYVKTRQRRNLGRIMLKGDNITLIQNVSPTKD
